The target in the test is Factor XIa (human) (UniProt P03951). Briefly: condition: only with 10 uM FELIAP (DNA aptamer against FXIa); SDS-PAGE of a denaturation-resistant covalent complex; 200 nM FXIa pre-incubated with 10 uM FELIAP (DNA aptamer) at 37 °C for 5 min, then 2 uM antithrombin and 2 U/mL sodium heparin for 1 or 5 min; reduced SDS-PAGE, Coomassie stain; both purified.

Protein sequences, listed by entry. Tags and fused reporters are not part of them. Lines headed by an entry give the natural chain unless they say otherwise; changes in a name come on top. Residues count along the entry.
UniProt P03951: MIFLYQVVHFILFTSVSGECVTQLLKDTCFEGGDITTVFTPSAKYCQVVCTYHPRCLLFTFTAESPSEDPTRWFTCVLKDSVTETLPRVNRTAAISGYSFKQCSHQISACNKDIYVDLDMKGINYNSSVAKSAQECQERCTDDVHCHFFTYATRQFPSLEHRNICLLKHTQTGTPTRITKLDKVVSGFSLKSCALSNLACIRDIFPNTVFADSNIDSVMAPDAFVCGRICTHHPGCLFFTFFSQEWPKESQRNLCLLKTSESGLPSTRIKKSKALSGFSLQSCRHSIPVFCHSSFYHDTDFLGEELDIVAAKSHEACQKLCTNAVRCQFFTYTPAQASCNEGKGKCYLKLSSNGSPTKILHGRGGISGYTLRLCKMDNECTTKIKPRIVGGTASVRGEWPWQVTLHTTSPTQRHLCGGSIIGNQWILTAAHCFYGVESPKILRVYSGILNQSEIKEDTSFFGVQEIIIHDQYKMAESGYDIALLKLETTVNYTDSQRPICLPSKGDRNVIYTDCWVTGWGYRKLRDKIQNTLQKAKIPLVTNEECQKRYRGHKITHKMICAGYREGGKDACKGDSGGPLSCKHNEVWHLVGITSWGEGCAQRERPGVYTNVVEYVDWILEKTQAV
UniProt P01008, residues 33-464: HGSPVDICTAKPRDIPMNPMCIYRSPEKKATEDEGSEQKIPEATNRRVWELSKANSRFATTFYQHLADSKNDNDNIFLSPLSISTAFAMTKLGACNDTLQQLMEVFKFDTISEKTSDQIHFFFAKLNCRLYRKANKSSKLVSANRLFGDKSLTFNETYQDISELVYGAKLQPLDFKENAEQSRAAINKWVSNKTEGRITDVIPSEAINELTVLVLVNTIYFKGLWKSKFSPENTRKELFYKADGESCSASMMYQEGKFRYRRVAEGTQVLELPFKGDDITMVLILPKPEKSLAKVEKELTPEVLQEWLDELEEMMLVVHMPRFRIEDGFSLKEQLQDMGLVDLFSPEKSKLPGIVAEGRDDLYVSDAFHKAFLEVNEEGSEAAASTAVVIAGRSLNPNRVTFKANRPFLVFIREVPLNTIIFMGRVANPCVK

No constants are given. Whether binding was seen depends on the method and setting.

On to “antithrombin (from UniProt P01008 33-464)”, for which the binding result is listed as “no binding”.

Values taken from paper PMC5437010.
